# In PubChem BioAssay AID1671190 (National Center for Advancing Translational Sciences (NCATS), 2021):
# The chains behind the UniProt entries cited, without tags or fusion partners. Where a name states a change or a piece, a line headed by the entry shows the natural chain unless it says otherwise.
# UniProt P18054: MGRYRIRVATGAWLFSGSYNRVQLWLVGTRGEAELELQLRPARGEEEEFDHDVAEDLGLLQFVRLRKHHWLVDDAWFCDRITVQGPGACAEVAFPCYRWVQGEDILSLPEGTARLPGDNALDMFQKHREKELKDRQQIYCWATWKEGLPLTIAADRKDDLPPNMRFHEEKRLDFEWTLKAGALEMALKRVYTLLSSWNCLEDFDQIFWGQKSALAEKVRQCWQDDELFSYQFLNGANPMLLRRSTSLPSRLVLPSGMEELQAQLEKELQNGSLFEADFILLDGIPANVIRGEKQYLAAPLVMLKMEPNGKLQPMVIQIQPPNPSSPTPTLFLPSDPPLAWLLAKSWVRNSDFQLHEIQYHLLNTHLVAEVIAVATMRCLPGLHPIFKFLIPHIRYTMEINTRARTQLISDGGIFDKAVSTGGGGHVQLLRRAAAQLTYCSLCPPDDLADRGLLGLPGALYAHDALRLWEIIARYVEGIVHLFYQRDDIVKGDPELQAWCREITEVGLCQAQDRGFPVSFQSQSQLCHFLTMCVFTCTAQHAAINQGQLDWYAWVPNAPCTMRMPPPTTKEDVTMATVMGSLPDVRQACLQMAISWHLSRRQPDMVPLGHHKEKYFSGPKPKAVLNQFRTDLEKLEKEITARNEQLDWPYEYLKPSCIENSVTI
# The campaign covered roughly 580,000 compounds. About 6,100 (1.1%) were called active. The inconclusive results got no clear call from the source; some entries with a clear call stand among them for comparison. The call rests on the fitted dose curve; in most records, active means well fitted inhibition curve with a large enough effect; inconclusive means small, poorly fitted or top-dose-only effect, or another doubt; inactive means no such curve, though single readings can be large or run the other way. Potencies beside an inconclusive call are fits to weak or partial responses and may not hold up.
# Target: Polyunsaturated fatty acid lipoxygenase ALOX12 (Homo sapiens) (UniProt P18054)
# Assay: Primary qHTS assay for inhibitors of human arachidonate 12S-lipoxygenase (ALOX12): Round 2
# Conditions: purified 12hLO, xylenol orange hydroperoxide absorbance; activity change, negative = inhibition: at 108 µM (top of the series) unless noted
# Method in brief: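 Hydroperoxide product was detected by ferrous iron/xylenol orange as the 573 to 405 nm absorbance ratio. Arachidonic acid at 40 uM (final) was turned over for 30 min at room temperature by 150 nM human 12hLO, pH 7.0 Hepes buffer, after 15 min compound preincubation.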
# On the % scale 0 is the no-effect control and ±100 the full control effect; potency means the concentration at half of the fitted maximal effect.
Structure (SMILES),Potency,"activity change, negative = inhibition"
CCC(C)NC(=O)COC(=O)Cc1sc(N)nc1-c1ccc(C)cc1 (stereo not drawn),inactive,–
C#CCNC(=O)C(CCSC)NC(=O)c1ccc2ccccc2n1 (stereo not drawn),inactive,–
C=CCc1ccccc1OCCNCCCOC,inactive,–
Cc1cc(N2C(=O)C(O)=C(C(=O)c3cc4ccccc4o3)C2c2cccc(Cl)c2)no1 (stereo not drawn),"inconclusive: 50.1 µM [inhibitor, partial curve, poor fit]",–
Cc1ccc(CSCC(=O)Nc2cc(S(=O)(=O)N3CCOCC3)ccc2OC(C)C)cc1,"inconclusive: 44.7 µM [inhibitor, partial curve, poor fit]",–
Cc1c(CNCCc2ccc(Cl)cc2)c(C(=O)O)c(C)n1-c1ccccc1,"inconclusive: 50.1 µM [inhibitor, partial curve, poor fit]",–
CC(C)(Oc1ccc(Br)cc1)C(=O)Nc1cc(-c2nc3ccccc3[nH]2)ccc1Cl,inactive,–
Cc1ccc(S(=O)(=O)N=Nc2c(O)[nH]c3ccccc23)cc1C,"inconclusive: 31.6 µM [inhibitor, partial curve, poor fit]",–
COCCN1CCC2(CCC1=O)CN(C(=O)c1ccco1)CCN2C (stereo not drawn),"inconclusive: 25.1 µM [inhibitor, single point]",–
Cc1ccc2cc(C3CC(c4ccco4)=NN3S(=O)(=O)c3ccccc3)c(Cl)nc2c1 (stereo not drawn),"inconclusive: 31.6 µM [inhibitor, partial curve, poor fit]",–
CCc1c(C)nc2nncn2c1NCc1ccc(Cl)cc1,inactive,–
Cc1ccc2c(c1)c1c(n2CC(O)CNC(CO)(CO)CO)CCCC1 (stereo not drawn),inactive,–
O=C(Cc1n[nH]c(=O)c2ccccc12)OCC(=O)N1CCCC1=O,inactive,–
S=C1NCN(Cc2ccco2)CN1Cc1ccco1,"inconclusive: 112 µM [inhibitor, single point]",–
CN(C)C[C@@H]1CN(c2ncccn2)C[C@H]1NC(=O)Cc1cccc(Cl)c1,inactive,–
Nc1nonc1-n1nnc(C(=O)N/N=C/c2ccco2)c1CSc1ccc(Cl)cc1,"inconclusive: 158 µM [inhibitor, single point]",–
CCc1nc2c(c(-c3ccc(Cl)cc3)n1)CN(C(=O)c1ccccc1)CC2,"inconclusive: 56.2 µM [inhibitor, single point]",–
O=C(Oc1ccc2ccc(=O)oc2c1)c1ccc([N+](=O)[O-])cc1,"inconclusive: 5.01 µM [inhibitor, full curve, poor fit]",–
CCCC(c1nnnn1Cc1ccc(OC)cc1)N1CCN(C(=O)c2ccco2)CC1 (stereo not drawn),"inconclusive: 35.5 µM [inhibitor, partial curve, poor fit]",–
CC1(COCC2CC2)COc2ccc(C(=O)N3CCOCC3c3cccc(F)c3)cc2N1 (stereo not drawn),inactive,–
CCN(C(=S)NC(=O)C1CC1)c1ccccc1,"inconclusive: 8.91 µM [inhibitor, full curve, poor fit]",–
O=C(Nc1ccc2c(c1)OCCO2)c1ccc(Br)cc1,"inconclusive: 112 µM [inhibitor, single point]",–
Cc1cc(Br)ccc1OCCN1CC(C)OC(C)C1 (stereo not drawn),"inconclusive: 11.2 µM [inhibitor, partial curve, poor fit]",–

# Entries of single compounds from above.
# O=C(Oc1ccc2ccc(=O)oc2c1)c1ccc([N+](=O)[O-])cc1 is entered as Potency: inconclusive: 5.01 µM [inhibitor, full curve, poor fit]
# CCCC(c1nnnn1Cc1ccc(OC)cc1)N1CCN(C(=O)c2ccco2)CC1 (stereo not drawn) is entered as Potency: inconclusive: 35.5 µM [inhibitor, partial curve, poor fit]
# Cc1c(CNCCc2ccc(Cl)cc2)c(C(=O)O)c(C)n1-c1ccccc1 is entered as Potency: inconclusive: 50.1 µM [inhibitor, partial curve, poor fit]
# S=C1NCN(Cc2ccco2)CN1Cc1ccco1 is entered as Potency: inconclusive: 112 µM [inhibitor, single point]

# (continued)

Structure (SMILES),Potency,"activity change, negative = inhibition"
COc1ccc(CCNc2c(N)n(Cc3ccccc3)c(=O)[nH]c2=O)cc1OC,"inconclusive: 39.8 µM [inhibitor, partial curve, poor fit]",–
CC(=O)c1ccc(OCCCC(=O)Nc2cccc(S(=O)(=O)N3CCCCCC3)c2)cc1,"inconclusive: 4.47 µM [inhibitor, full curve, poor fit]",–
O=C1CCNCCCC(c2nc(-c3ccccc3)no2)CCN1 (stereo not drawn),inactive,–
COc1c(C)cc(C(O)c2ncc(-c3cccc4ccccc34)[nH]2)cc1C (stereo not drawn),inactive,–
O=C(c1cccs1)N(Cc1nc2sc3c(c2c(=O)[nH]1)CCCC3)C1CCCC1,inactive,–
COC(=O)c1ccc(Oc2cc(C)nc(SC)n2)cc1,inactive,–
COc1cc(O)c(C(=O)c2ccccc2)cc1S(=O)(=O)O,"inconclusive: 39.8 µM [inhibitor, partial curve]",–
COc1cc(C(=O)NNC(=S)NC(=O)c2ccc3c(c2)OCO3)cc(OC)c1OC,"inconclusive: 79.4 µM [inhibitor, partial curve, poor fit]",–
O=C1CN(C(=O)COc2ccc(Cl)cc2Cl)C(c2ccccc2)c2cc(F)ccc2N1 (stereo not drawn),inactive,–
O=C(CCc1ncc(-c2ccccc2)o1)NC1CCS(=O)(=O)C1 (stereo not drawn),inactive,–
COc1ccc(NC(=O)CSc2nc(C)cc3c2C(=O)OC3)cc1,"inconclusive: 158 µM [inhibitor, partial curve, poor fit]",–
COc1cccc(CNC(=O)CSc2nc(-c3ccccc3C)nc3cc(=O)[nH]n23)c1,"inconclusive: 39.8 µM [inhibitor, single point]",–
CC(C)CC(=O)Nc1cccc(-c2nc3cc(Cl)ccc3o2)c1,inactive,–
Cc1ccccc1NC(=O)NCC1CCCO1 (stereo not drawn),inactive,–
N#Cc1cccc(-c2ccnc(N[C@H]3CO[C@H]4[C@@H]3OC[C@@H]4NC(=O)c3cccs3)n2)c1,inactive,–
CCN1CCC2(CC1)Oc1ccccc1C1CC(c3ccccc3Cl)=NN12 (stereo not drawn),"inconclusive: 112 µM [inhibitor, single point]",–
CC(=O)c1ccc(NC(=O)C(C)Sc2nc3nc(C)cc(C)c3c(=O)[nH]2)cc1 (stereo not drawn),"inconclusive: 44.7 µM [inhibitor, partial curve, poor fit]",–
COc1cccc(C(c2nnnn2Cc2ccco2)N2CCN(Cc3ccccc3)CC2)c1OC (stereo not drawn),"inconclusive: 70.8 µM [inhibitor, partial curve, poor fit]",–
COc1ccc(C(Nc2ccccn2)c2c(NC(=O)c3ccccc3)sc(C)c2C)cc1OC (stereo not drawn),inactive,–
CC[C@]12c3[nH]c4ccc(OC)cc4c3CCN1C(=O)C(CC(=O)NC/C=C(\C)CCC=C(C)C)C[C@@H]2C(=O)N1CCN(C(=O)c2ccco2)CC1 (stereo partly drawn),"inconclusive: 44.7 µM [inhibitor, partial curve, poor fit]",–
COc1ccc(OCC(=O)N/N=C(\C)c2ccc(OC)cc2)cc1,inactive,–
Cc1ccccc1NC(=O)/C=C/c1cccs1,inactive,–
Cc1ccc(/C=N/NC(=O)c2nnn(-c3nonc3N)c2CSc2ccccc2)s1,inactive,–

Structure (SMILES),Potency,"activity change, negative = inhibition"
CCCCCCCOC(=O)C1=C(C)Nc2ncnn2C1c1cccs1 (stereo not drawn),inactive,–
COC(=O)C1=C(C(=O)OC)[C@@H]2N(C)c3ccccc3[C@@]23C[C@@H](C(=O)OC)N(C(=O)C2CCC2)C3=N1,"inconclusive: 89.1 µM [inhibitor, single point]",–
COc1ccc(Cl)cc1C(=O)NCC(=O)OCc1ccccc1,"inconclusive: 63.1 µM [inhibitor, partial curve, poor fit]",–
CC1(C)CC(=Cc2ccccc2[N+](=O)[O-])C(=O)c2ccccc21,"inconclusive: 89.1 µM [inhibitor, partial curve, poor fit]",–
CCN1C(=O)[C@H]2[C@@H](c3ccc(-c4ccc5c(c4)OCO5)c(OC)c3)N[C@@](CC(C)C)(C(=O)OC)[C@H]2C1=O,"inconclusive: 44.7 µM [inhibitor, partial curve, poor fit]",–
COc1ccc(CCNC(=O)Nc2ccc3c(c2)c(=O)n(C)n3Cc2ccc(F)cc2)cc1OC,"inconclusive: 50.1 µM [inhibitor, partial curve, poor fit]",–
Cc1cccc(C(=O)NNc2ncnc3c2cnn3-c2ccc(C)cc2C)c1,–,inconclusive: -37.4% [inhibitor]
COc1ccc(C(=O)NNC(=S)NC(=O)c2ccc(OC)cc2)cc1,"inconclusive: 31.6 µM [inhibitor, partial curve, poor fit]",–
CC(C)c1ccc(S(=O)(=O)c2cnc(SCC(=O)Nc3ccc4c(c3)OCCO4)[nH]c2=O)cc1,"inconclusive: 39.8 µM [inhibitor, partial curve, poor fit]",–
CCCC(=O)Nc1ccc(C(=O)NCc2cccnc2)cc1,"inconclusive: 3.16 µM [inhibitor, full curve, poor fit]",–
Cc1ccc(Cn2cnc3nc4c(cc3c2=O)CC(C)CC4)cc1 (stereo not drawn),inactive,–
COc1ccc(NC(=O)CSCC(=O)N(C)Cc2cccc(OC)c2OC)cc1,inactive,–
O=C1C(=O)N(CCN2CCOCC2)C(c2ccccn2)/C1=C(/O)c1ccc(Cl)cc1 (stereo not drawn),"inconclusive: 31.6 µM [inhibitor, single point]",–
O=C(CCCN1C(=O)/C(=C\c2ccco2)SC1=S)Nc1ccc(O)cc1C(=O)O,active: 28.2 µM,–
Cc1ccc(CN2CCC(N3CC(OCC4CC4)C34CCOCC4)CC2)s1 (stereo not drawn),inactive,–
CN(CC(=O)Nc1ccc(Cl)c(C(F)(F)F)c1)C(=O)C1CCC1,"inconclusive: 63.1 µM [inhibitor, partial curve, poor fit]",–
COc1cc(Nc2nc3c(S(=O)(=O)c4ccc(C)c(C)c4)nnn3c3ccsc23)cc(OC)c1,"inconclusive: 112 µM [inhibitor, partial curve, poor fit]",–
CNc1ccc(-c2cccc([N+](=O)[O-])c2)cn1,inactive,–
CC(Sc1nc(-c2ccccc2)c(-c2ccccc2)o1)C(=O)NC(N)=O (stereo not drawn),"inconclusive: 3.16 µM [inhibitor, full curve, poor fit]",–
CSc1ccccc1C(=O)NCCS(=O)(=O)N1CCN(c2ccc(F)cc2)CC1,"inconclusive: 44.7 µM [inhibitor, partial curve, poor fit]",–
O=S(=O)(O)c1cccc(N=Nc2c(O)ccc3ccccc23)c1,"inconclusive: 39.8 µM [inhibitor, partial curve]",–
COc1cc(/C=C2\CCCc3c2nc2ccccc2c3C(=O)O)cc(Br)c1O,active: 50.1 µM,–
